Laboratory results published in the supplement of paper PMC10849652.
The other results are listed elsewhere or left out.

Chains of the proteins cited; added tags and fusions are not shown. Lines headed by an entry give the natural chain unless they say otherwise; changes in a name come on top.
UniProt Q8WVB6, whole entry, looked up: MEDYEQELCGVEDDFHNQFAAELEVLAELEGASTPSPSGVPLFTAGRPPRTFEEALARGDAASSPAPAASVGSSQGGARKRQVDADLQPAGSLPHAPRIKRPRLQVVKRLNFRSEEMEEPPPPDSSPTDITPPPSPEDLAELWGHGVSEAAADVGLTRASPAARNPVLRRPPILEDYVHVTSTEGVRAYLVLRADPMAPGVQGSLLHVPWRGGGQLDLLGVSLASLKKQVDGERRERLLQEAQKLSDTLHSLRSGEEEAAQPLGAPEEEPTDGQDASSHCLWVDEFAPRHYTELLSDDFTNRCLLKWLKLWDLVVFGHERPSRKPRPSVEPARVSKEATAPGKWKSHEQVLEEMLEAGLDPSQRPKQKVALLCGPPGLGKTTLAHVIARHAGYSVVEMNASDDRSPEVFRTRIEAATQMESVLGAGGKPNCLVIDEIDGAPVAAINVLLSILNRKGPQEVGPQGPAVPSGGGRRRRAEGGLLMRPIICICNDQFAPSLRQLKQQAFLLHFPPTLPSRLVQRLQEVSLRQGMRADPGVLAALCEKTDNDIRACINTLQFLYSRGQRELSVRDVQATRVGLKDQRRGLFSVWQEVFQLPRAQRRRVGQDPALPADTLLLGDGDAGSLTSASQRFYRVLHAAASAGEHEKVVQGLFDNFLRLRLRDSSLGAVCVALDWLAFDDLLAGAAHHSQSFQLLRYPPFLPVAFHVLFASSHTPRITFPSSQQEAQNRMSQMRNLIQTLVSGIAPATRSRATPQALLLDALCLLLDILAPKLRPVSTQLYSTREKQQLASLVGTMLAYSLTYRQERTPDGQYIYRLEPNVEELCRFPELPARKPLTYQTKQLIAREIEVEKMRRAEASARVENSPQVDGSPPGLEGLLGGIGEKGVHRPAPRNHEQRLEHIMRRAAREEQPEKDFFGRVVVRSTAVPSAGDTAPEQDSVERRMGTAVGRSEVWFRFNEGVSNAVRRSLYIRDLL
UniProt P56749: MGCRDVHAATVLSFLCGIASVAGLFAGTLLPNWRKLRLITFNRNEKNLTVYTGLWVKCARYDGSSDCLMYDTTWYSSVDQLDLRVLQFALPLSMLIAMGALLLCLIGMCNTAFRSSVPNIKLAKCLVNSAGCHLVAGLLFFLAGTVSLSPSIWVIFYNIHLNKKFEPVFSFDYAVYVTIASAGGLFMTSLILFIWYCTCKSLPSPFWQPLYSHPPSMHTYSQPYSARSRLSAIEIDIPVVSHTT
UniProt Q9Y3D0: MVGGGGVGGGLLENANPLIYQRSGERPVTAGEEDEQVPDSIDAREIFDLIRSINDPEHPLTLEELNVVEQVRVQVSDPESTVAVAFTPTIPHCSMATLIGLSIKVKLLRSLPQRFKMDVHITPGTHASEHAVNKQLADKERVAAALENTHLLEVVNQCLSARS
UniProt Q9NRP2: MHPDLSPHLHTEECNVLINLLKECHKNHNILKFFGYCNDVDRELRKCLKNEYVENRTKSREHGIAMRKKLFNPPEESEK
UniProt P51798: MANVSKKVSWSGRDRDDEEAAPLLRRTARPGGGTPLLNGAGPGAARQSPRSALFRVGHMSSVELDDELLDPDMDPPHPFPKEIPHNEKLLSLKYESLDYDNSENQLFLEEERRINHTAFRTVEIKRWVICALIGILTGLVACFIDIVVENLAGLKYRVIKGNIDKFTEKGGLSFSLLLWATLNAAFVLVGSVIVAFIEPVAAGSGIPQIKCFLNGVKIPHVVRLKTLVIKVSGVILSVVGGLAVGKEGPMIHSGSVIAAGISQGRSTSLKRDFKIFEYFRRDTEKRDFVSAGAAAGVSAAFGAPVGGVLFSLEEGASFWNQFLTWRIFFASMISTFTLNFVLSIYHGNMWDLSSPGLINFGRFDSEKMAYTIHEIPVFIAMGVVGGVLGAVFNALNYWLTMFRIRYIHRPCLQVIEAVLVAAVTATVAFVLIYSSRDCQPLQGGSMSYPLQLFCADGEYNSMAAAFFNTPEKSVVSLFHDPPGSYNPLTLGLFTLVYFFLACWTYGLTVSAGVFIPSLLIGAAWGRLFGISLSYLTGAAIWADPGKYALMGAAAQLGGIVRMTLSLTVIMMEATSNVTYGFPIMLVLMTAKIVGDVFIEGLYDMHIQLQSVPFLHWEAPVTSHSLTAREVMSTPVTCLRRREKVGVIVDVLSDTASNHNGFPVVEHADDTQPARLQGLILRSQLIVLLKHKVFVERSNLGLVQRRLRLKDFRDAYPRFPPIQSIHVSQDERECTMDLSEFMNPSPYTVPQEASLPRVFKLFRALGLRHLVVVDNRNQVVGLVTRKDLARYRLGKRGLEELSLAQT
UniProt P12277: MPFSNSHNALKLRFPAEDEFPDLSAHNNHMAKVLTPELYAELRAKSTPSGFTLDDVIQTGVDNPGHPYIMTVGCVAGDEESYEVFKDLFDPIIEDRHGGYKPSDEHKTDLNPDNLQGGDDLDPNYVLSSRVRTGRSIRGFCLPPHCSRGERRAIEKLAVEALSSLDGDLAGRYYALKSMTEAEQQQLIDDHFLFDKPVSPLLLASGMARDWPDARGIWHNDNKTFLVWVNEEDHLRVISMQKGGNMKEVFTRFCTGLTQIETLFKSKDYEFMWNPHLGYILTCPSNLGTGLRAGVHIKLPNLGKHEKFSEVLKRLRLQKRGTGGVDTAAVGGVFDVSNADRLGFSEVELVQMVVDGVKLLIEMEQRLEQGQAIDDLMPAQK
UniProt Q96S66: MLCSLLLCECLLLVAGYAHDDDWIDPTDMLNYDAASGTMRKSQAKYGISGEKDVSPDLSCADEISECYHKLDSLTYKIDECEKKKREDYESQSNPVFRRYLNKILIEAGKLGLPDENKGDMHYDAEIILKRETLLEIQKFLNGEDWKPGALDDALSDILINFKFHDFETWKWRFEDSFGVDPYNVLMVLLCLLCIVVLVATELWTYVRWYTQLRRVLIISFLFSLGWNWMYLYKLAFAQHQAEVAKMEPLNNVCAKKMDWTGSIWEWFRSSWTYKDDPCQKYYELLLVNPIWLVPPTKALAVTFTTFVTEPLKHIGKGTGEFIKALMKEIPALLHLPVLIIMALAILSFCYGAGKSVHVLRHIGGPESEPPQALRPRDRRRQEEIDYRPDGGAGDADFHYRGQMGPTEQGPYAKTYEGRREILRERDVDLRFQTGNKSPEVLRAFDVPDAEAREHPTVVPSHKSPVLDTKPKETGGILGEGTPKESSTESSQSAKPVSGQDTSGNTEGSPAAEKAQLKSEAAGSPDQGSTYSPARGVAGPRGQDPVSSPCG
UniProt P09496: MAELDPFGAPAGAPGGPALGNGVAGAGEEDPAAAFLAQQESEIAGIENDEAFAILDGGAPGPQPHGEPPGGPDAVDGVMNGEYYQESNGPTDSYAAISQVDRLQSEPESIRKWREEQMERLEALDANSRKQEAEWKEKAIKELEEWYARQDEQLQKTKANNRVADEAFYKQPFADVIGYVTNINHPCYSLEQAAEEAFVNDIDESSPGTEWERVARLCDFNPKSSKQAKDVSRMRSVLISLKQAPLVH
UniProt O96017, whole entry, looked up: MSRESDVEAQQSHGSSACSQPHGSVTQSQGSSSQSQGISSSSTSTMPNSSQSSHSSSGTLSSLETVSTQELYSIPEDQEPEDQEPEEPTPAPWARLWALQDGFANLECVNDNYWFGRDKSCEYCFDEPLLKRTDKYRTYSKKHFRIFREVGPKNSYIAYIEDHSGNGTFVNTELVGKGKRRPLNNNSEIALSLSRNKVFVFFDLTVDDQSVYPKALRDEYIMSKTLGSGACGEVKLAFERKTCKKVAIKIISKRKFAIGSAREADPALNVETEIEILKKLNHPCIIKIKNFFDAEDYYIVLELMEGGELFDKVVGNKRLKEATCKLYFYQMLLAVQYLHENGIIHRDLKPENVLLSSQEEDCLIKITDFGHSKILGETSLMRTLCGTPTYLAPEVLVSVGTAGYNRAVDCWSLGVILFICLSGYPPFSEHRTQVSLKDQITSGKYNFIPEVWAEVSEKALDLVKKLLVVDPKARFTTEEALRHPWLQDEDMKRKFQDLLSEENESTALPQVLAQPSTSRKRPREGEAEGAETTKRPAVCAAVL
UniProt Q8N1G2: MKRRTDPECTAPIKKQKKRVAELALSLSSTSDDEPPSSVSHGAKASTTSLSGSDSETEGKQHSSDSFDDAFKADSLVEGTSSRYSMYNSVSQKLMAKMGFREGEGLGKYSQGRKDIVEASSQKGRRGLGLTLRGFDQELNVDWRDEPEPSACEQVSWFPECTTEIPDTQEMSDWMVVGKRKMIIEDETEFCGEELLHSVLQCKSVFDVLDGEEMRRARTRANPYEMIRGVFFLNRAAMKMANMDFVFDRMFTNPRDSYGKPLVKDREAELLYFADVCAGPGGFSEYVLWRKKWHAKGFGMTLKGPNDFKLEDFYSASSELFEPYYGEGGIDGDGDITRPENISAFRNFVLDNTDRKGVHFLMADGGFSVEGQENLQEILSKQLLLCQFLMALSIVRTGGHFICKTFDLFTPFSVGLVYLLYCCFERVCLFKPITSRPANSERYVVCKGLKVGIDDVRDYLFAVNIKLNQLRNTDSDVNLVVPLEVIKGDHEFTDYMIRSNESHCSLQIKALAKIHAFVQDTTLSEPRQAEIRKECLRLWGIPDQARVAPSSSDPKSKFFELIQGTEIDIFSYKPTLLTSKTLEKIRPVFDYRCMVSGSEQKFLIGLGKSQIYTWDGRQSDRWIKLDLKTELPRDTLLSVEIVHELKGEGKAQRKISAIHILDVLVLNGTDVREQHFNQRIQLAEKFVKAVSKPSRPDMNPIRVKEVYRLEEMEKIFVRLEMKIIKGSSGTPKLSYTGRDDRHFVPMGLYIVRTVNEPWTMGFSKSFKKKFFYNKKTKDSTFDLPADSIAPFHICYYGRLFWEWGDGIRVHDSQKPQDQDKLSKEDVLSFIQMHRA
UniProt Q99828: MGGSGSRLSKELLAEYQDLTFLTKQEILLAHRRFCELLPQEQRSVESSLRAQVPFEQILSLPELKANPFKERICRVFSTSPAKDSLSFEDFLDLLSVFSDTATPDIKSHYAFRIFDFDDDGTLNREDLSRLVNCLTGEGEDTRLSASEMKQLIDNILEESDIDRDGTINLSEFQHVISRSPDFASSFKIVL
UniProt O15111: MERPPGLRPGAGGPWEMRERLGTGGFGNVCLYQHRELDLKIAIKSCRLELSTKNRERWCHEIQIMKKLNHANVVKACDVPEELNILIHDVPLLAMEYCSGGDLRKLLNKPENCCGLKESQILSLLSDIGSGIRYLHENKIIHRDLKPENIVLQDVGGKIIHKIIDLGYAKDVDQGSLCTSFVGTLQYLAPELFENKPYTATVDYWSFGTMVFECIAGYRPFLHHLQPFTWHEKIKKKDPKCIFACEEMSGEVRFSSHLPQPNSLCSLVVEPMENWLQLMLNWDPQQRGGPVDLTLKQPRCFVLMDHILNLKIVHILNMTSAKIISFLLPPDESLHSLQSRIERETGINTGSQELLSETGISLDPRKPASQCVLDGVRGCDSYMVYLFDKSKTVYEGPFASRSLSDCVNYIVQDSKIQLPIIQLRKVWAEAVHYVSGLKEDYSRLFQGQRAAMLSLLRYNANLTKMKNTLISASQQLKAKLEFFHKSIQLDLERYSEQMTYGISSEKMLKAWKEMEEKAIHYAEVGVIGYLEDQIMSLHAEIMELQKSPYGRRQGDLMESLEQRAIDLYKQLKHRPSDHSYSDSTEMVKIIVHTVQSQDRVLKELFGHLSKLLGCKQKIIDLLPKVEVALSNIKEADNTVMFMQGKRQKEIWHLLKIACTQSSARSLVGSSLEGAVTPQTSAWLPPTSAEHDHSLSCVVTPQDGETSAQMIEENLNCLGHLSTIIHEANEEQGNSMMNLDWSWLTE
UniProt Q96JM3: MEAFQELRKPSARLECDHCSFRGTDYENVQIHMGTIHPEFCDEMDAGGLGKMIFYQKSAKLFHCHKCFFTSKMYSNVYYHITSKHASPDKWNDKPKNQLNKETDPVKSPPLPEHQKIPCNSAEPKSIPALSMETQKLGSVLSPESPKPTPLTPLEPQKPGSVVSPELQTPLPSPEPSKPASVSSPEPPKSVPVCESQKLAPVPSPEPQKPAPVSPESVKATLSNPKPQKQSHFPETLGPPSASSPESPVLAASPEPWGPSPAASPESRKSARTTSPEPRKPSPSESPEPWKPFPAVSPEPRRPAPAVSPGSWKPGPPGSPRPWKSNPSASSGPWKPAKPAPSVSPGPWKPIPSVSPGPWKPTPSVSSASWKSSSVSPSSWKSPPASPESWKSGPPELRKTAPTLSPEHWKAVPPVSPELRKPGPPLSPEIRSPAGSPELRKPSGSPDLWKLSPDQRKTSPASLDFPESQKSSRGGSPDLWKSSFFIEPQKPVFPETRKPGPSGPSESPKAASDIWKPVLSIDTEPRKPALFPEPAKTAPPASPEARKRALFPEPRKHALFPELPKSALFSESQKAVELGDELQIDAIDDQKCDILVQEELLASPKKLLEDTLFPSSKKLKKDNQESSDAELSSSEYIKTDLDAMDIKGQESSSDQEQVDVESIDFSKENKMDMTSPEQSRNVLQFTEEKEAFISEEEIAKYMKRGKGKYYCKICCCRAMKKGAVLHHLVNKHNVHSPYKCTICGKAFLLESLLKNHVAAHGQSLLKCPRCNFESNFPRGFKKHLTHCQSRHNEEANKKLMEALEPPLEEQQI

Key:
Test in all cases: log2 fold change, soluble protein after heating vs DMSO (PISA); higher = thermal stabilisation; K562 lysate, 10 uM; active = over 0.2 and 3.5 SD of the protein, either way, in both replicates (recomputed)
nilotinib = compound: Cc1cn(-c2cc(NC(=O)c3ccc(C)c(Nc4nccc(-c5cccnc5)n4)c3)cc(C(F)(F)F)c2)cn1 [nilotinib]
Procedure, shortened: (§1)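 The values are log-two fold changes in thermal stability compared with solvent controls and come from duplicates. They were obtained by TMTpro 16plex LC-MS/MS, with channel sums equalised, on the supernatant after 21,000xg for 90 min. That supernatant came from crude K562 extract at 1 mg/mL protein treated with 10 μM compound for 30 min, heated for 3 min across 48°C-58°C, pooled and brought to 0.5% NP-40 at 4°C.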

[1] = compound: Cc1nc(Nc2n[nH]c3c2CN(C(=O)N[C@H](CN(C)C)c2ccccc2)C3(C)C)c2sccc2n1
Procedure, shortened: as §1

dasatinib = compound: Cc1nc(Nc2ncc(C(=O)Nc3c(C)cccc3Cl)s2)cc(N2CCN(CCO)CC2)n1 [dasatinib]
Procedure, shortened: as §1

[2] = compound: Cc1ncc(-c2ccnc(Nc3ccc(S(C)(=O)=O)cc3)n2)n1C(C)C
Procedure, shortened: as §1

[3] = compound: Cn1cc(-c2ccc3c(c2)CCN3C(=O)Cc2cccc(C(F)(F)F)c2)c2c(N)ncnc21
Procedure, shortened: as §1

quisinostat = compound: Cn1cc(CNCC2CCN(c3ncc(C(=O)NO)cn3)CC2)c2ccccc21 [quisinostat]
Procedure, shortened: as §1

tipifarnib = compound: Cn1cncc1[C@@](N)(c1ccc(Cl)cc1)c1ccc2c(c1)c(-c1cccc(Cl)c1)cc(=O)n2C [tipifarnib]
Procedure, shortened: as §1

[4] = compound: NC(=O)Nc1cc(-c2cccc(F)c2)sc1C(=O)N[C@H]1CCCNC1
Procedure, shortened: as §1

[5] = compound: NC(=O)c1cnc(N[C@@H]2CCCC[C@@H]2N)nc1Nc1cccc(-n2nccn2)c1
Procedure, shortened: as §1

[6] = compound: NC1(c2ccc(-c3nc4ccn5c(=O)[nH]nc5c4cc3-c3ccccc3)cc2)CCC1
Procedure, shortened: as §1

Measured: log2 fold change

CISD2 (UniProt Q8N5K1)
inactive: nilotinib 0.049 | [1] -0.038 | dasatinib 0.019 | [2] 0.02 | [3] -0.013 | quisinostat -0.005 | tipifarnib -0.025 | [4] -0.013 | [5] 0.074 | [6] -0.005

CHEK1 (UniProt O14757)
active: [4] 0.242
inactive: nilotinib -0.011 | [1] -0.158 | dasatinib 0.02 | [2] -0.048 | [3] -0.007 | quisinostat -0.032 | tipifarnib 0.016 | [5] 0.003 | [6] -0.042

CMPK2 (UniProt Q5EBM0)
inactive: nilotinib -0.075 | [1] -0.01 | dasatinib -0.067 | [2] 0.005 | [3] -0.011 | quisinostat -0.02 | tipifarnib 0.042 | [4] 0.032 | [5] -0.006 | [6] 0.013

CHKA (UniProt P35790)
inactive: nilotinib 0.067 | [1] -0.003 | dasatinib -0.019 | [2] 0.035 | [3] -0.011 | quisinostat -0.048 | tipifarnib 0.004 | [4] -0.039 | [5] 0.08 | [6] 0.022

CNBP isoform 4 (UniProt P62633)
inactive: nilotinib 0.132 | [1] 0.124 | dasatinib -0.168 | [2] 0.1 | [3] -0.109 | quisinostat 0.118 | tipifarnib -0.009 | [4] -0.128 | [5] -0.041 | [6] -0.084

CHTF18 (UniProt Q8WVB6)
inactive: nilotinib -0.002 | [1] -0.006 | dasatinib -0.04 | [2] -0.067 | [3] 0.081 | quisinostat -0.058 | tipifarnib 0 | [4] 0.117 | [5] -0.022 | [6] 0.017

CLDN12 (UniProt P56749)
inactive: nilotinib -0.015 | [1] 0.034 | dasatinib -0.048 | [2] 0.028 | [3] 0.028 | quisinostat -0.001 | tipifarnib -0.084 | [4] -0.085 | [5] -0.076 | [6] 0.054

CIAO2B (UniProt Q9Y3D0)
inactive: nilotinib 0.028 | [1] -0.008 | dasatinib -0.117 | [2] 0.036 | [3] -0.017 | quisinostat -0.032 | tipifarnib -0.013 | [4] 0.022 | [5] 0 | [6] 0.032

CLIP1 isoform 2 (UniProt P30622)
inactive: nilotinib 0.055 | [1] -0.04 | dasatinib 0.049 | [2] -0.073 | [3] -0.01 | quisinostat -0.049 | tipifarnib 0.015 | [4] -0.015 | [5] 0.029 | [6] -0.059

CMC2 (UniProt Q9NRP2)
inactive: nilotinib -0.124 | [1] -0.017 | dasatinib 0.026 | [2] -0.102 | [3] 0.022 | quisinostat -0.053 | tipifarnib -0.005 | [4] 0.02 | [5] -0.011 | [6] 0.021

CLIC1 (UniProt O00299)
inactive: nilotinib 0.014 | [1] -0.016 | dasatinib -0.004 | [2] 0.002 | [3] -0.008 | quisinostat 0.038 | tipifarnib 0.031 | [4] -0.011 | [5] -0.012 | [6] -0.001

CLTB isoform 2 (UniProt P09497)
inactive: nilotinib 0.006 | [1] -0.002 | dasatinib 0.014 | [2] -0.006 | [3] -0.032 | quisinostat -0.021 | tipifarnib -0.003 | [4] -0.016 | [5] -0.018 | [6] -0.02

CLCN7 (UniProt P51798)
inactive: nilotinib 0.033 | [1] -0.015 | dasatinib 0.021 | [2] 0.028 | [3] -0.021 | quisinostat -0.066 | tipifarnib 0.014 | [4] -0.023 | [5] -0.015 | [6] 0.013

CHM (UniProt P24386)
inactive: nilotinib -0.071 | [1] -0.111 | dasatinib -0.015 | [2] 0.154 | [3] -0.03 | quisinostat -0.018 | tipifarnib -0.095 | [4] -0.094 | [5] 0.024 | [6] -0.028

CIRBP (UniProt Q14011)
inactive: nilotinib 0 | [1] 0.027 | dasatinib -0.044 | [2] 0.02 | [3] 0.019 | quisinostat 0.028 | tipifarnib -0.024 | [4] -0.007 | [5] -0.014 | [6] 0.018

CKB (UniProt P12277)
inactive: nilotinib -0.013 | [1] -0.017 | dasatinib -0.051 | [2] 0.001 | [3] 0 | quisinostat 0.035 | tipifarnib 0.018 | [4] 0.031 | [5] -0.013 | [6] 0.008

CLCC1 (UniProt Q96S66)
inactive: nilotinib 0.016 | [1] 0.007 | dasatinib 0.039 | [2] -0.007 | [3] 0.001 | quisinostat 0.058 | tipifarnib -0.021 | [4] -0.035 | [5] -0.009 | [6] -0.004

CLTA (UniProt P09496)
inactive: nilotinib 0.037 | [1] -0.033 | dasatinib 0.063 | [2] 0.026 | [3] 0.014 | quisinostat 0.168 | tipifarnib 0.046 | [4] -0.034 | [5] -0.028 | [6] 0.014

CHEK2 (UniProt O96017)
inactive: nilotinib -0.022 | dasatinib 0.04 | [2] -0.007 | [3] 0.05 | quisinostat -0.057 | tipifarnib 0.023 | [5] 0.013 | [6] 0.035
active: [1] 0.285 | [4] 0.326

CMTR1 (UniProt Q8N1G2)
inactive: nilotinib -0.028 | [1] -0.02 | dasatinib -0.048 | [2] 0.018 | [3] 0.02 | quisinostat 0.031 | tipifarnib -0.05 | [4] 0.039 | [5] 0.019 | [6] -0.006

CHERP (UniProt Q8IWX8)
inactive: nilotinib -0.019 | [1] 0.011 | dasatinib -0.046 | [2] -0.016 | [3] 0.013 | quisinostat -0.05 | tipifarnib -0.017 | [4] 0.015 | [5] 0.017 | [6] 0.044

CIB1 (UniProt Q99828)
inactive: nilotinib -0.014 | [1] -0.016 | dasatinib 0.022 | [2] 0.045 | [3] 0.008 | quisinostat 0.004 | tipifarnib 0.002 | [4] -0.011 | [5] 0.041 | [6] 0

CHMP2A (UniProt O43633)
inactive: nilotinib -0.017 | [1] -0.019 | dasatinib 0.043 | [2] -0.016 | [3] 0 | quisinostat -0.024 | tipifarnib -0.012 | [4] -0.044 | [5] -0.017 | [6] 0.037

CHRAC1 (UniProt Q9NRG0)
inactive: nilotinib 0.025 | [1] -0.064 | dasatinib -0.061 | [2] -0.032 | [3] 0.04 | quisinostat 0.032 | tipifarnib 0.079 | [4] 0.021 | [5] 0.027 | [6] 0.111

Taken from the listing (two entries):
CHMP2A (UniProt O43633)
inactive: nilotinib -0.017 | [1] -0.019 | dasatinib 0.043 | [2] -0.016 | [3] 0 | quisinostat -0.024 | tipifarnib -0.012 | [4] -0.044 | [5] -0.017 | [6] 0.037

CHRAC1 (UniProt Q9NRG0)
inactive: nilotinib 0.025 | [1] -0.064 | dasatinib -0.061 | [2] -0.032 | [3] 0.04 | quisinostat 0.032 | tipifarnib 0.079 | [4] 0.021 | [5] 0.027 | [6] 0.111

Further results follow.

CHMP1A (UniProt Q9HD42)
inactive: nilotinib -0.014 | [1] 0.023 | dasatinib 0.031 | [2] -0.026 | [3] 0.038 | quisinostat 0.008 | tipifarnib 0.021 | [4] -0.035 | [5] -0.044 | [6] -0.001

CHML (UniProt P26374)
inactive: nilotinib -0.001 | [1] 0.013 | dasatinib 0.035 | [2] -0.011 | [3] -0.001 | quisinostat 0 | tipifarnib -0.031 | [4] -0.015 | [5] -0.008 | [6] 0.002

CHUK (UniProt O15111)
inactive: nilotinib -0.029 | [1] 0.015 | dasatinib -0.091 | [2] 0.035 | [3] 0.059 | quisinostat -0.131 | tipifarnib -0.015 | [4] 0.078 | [5] -0.006 | [6] -0.116

CHD4 isoform 2 (UniProt Q14839)
inactive: nilotinib 0.006 | [1] 0.008 | dasatinib -0.011 | [2] -0.006 | [3] 0.015 | quisinostat -0.038 | tipifarnib -0.008 | [4] 0.031 | [5] 0.01 | [6] 0.001

CHAMP1 (UniProt Q96JM3)
inactive: nilotinib -0.017 | [1] -0.017 | dasatinib -0.016 | [2] 0.003 | [3] -0.009 | quisinostat -0.028 | tipifarnib 0 | [4] 0.014 | [5] 0.028 | [6] 0.016
